The values that follow come from article PMC9332457.

The assay addresses T1, MoAtg18, two-hybrid fusion of the pairwise assays (Magnaporthe oryzae) (UniProt Q524W4).
T1 sequence: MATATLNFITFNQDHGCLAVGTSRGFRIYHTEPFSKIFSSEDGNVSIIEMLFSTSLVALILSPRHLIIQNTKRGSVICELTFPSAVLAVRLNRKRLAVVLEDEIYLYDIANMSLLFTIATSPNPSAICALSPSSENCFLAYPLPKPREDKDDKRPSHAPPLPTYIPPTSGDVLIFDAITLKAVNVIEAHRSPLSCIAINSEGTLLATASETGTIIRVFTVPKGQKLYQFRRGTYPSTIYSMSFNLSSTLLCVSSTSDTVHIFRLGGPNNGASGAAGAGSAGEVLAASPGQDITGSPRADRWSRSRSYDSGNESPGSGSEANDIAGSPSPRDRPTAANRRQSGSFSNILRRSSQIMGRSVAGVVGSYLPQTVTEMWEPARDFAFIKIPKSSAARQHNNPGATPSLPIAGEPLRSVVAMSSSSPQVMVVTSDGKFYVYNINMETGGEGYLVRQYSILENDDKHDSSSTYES
The assay can be described thus: two-hybrid.

Results are given in words; binding and its absence hold for the method and conditions named. A result given as binding can be weak or reduced; the word gives no strength. Where a sequence is shown, tags or fusion partners need not be part of it.

With “MoKns1–N3 (332–670 aa), two-hybrid fusion (from UniProt G4N5S6) (domain or fragment)”, the binding result is on record as “binds”.
